Patent US8716326B2, “Isoindolinone derivatives, preparation method thereof and a pharmaceutical composition comprising same” (Korea Research Institute of Chemical Technology, priority 2009, dated 2014)
Some results were stated once for a whole list of compounds, not compound by compound.

Test system: promoter activity of ALP
Test: ALP promoter activity, luciferase reporter (pGL3 with mice ALP promoter) in C2C12 cells
Assay type: cell-based
Conditions: 5.0 μM, 24 hrs, FIGS. 1 and 2

Row | Structure (SMILES) | ALP activity compared to the control group
1 | COc1cc2c(c(-c3cncnc3)c1OC)CN(Cc1ccc(C(=O)Nc3ccccc3N)cc1)C2=O [Example 8, N-(2-aminophenyl)-4-((5,6-dimethoxy-1-oxo-4-(pyrimidin-5-yl)isoindolin-2-yl)methyl)benzamide] | ≥ 2 fold
2 | Cc1cc(C(=O)NCCCCCC(=O)NO)ccc1-c1ccccc1 [Example 94, N-(5-(hydroxycarbamoyl)pentyl)-3-methyl-4-phenylbenzamide] | ≥ 2 fold
